Assay results as given in patent publication US7119077.
Results are given in words; binding and its absence hold for the method and conditions named. A result given as binding can be weak or reduced; the word gives no strength.

Experiments:
[1] = target: T1, human thyroid hormone receptor beta (human) (UniProt P10828); experiment: gel mobility shift, MLV-TRE probe, in vitro translated proteins
T1 sequence (looked up): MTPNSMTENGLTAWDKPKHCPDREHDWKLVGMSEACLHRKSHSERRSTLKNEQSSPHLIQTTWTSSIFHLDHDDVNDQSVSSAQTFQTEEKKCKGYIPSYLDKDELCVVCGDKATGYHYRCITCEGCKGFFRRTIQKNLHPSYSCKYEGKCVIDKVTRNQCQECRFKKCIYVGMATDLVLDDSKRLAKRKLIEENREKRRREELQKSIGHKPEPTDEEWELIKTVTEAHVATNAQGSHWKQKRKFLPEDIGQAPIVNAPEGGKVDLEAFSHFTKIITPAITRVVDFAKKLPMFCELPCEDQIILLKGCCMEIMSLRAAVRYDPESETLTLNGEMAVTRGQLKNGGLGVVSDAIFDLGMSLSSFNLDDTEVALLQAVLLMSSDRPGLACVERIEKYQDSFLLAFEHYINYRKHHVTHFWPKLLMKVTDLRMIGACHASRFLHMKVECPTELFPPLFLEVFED

[2] = target: T2, rat peroxisome proliferator-activated receptor (rat) (UniProt P37230); experiment: gel mobility shift, AOX-PPARE probe, in vitro translated proteins
T2 sequence (looked up): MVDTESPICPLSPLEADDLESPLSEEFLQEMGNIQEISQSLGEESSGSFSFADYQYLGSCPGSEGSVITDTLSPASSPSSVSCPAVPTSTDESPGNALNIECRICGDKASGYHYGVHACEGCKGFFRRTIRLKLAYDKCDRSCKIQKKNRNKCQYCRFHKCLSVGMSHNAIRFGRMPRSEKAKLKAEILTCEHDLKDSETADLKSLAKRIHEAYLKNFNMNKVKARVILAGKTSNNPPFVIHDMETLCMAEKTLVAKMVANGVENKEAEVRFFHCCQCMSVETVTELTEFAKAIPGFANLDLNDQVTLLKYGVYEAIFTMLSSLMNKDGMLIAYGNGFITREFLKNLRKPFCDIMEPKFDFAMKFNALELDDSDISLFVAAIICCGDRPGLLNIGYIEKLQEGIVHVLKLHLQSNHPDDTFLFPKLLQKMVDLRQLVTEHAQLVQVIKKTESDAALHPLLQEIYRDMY

[3] = target: T3, human vitamin D receptor (human) (UniProt P11473); experiment: gel mobility shift, SSP1-VDRE probe, in vitro translated proteins
T3 sequence (looked up): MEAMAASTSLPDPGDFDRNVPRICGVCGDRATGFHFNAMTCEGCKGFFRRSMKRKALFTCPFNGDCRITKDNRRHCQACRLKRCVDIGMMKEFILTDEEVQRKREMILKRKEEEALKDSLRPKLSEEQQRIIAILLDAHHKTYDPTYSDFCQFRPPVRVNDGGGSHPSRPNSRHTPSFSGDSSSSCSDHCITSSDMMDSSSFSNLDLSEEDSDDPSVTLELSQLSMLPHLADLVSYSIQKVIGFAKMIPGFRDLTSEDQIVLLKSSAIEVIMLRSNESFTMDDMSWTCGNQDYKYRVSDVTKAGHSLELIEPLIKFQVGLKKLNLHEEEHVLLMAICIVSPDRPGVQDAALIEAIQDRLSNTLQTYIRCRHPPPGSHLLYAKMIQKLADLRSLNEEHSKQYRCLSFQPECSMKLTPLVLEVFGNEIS

[4] = target: T4, Drosophila ecdysone receptor (Drosophila) (UniProt P34021); experiment: gel mobility shift, hsp27-EcRE probe, in vitro translated EcR and usp
T4 sequence (looked up): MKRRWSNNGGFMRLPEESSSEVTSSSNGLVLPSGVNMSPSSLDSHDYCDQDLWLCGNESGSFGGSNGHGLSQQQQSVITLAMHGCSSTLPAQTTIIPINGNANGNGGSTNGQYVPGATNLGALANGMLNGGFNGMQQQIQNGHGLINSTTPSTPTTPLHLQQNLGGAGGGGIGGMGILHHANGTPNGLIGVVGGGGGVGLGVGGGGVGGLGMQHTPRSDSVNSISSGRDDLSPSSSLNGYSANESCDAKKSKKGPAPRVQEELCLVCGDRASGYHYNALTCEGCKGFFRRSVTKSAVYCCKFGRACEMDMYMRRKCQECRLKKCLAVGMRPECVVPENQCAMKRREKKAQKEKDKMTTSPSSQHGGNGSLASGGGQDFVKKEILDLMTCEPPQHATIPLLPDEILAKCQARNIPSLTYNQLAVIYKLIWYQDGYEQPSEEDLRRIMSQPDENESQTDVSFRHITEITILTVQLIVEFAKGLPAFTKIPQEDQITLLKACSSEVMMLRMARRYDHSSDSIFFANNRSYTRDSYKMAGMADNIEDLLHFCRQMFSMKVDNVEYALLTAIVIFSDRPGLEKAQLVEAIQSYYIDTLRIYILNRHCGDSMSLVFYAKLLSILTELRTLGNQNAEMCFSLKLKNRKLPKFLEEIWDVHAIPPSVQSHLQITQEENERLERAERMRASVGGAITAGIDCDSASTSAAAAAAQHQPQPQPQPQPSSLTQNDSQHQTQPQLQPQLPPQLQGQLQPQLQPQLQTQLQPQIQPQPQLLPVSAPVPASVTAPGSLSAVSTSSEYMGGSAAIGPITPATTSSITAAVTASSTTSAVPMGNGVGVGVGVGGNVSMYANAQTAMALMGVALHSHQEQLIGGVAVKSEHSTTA

[5] = target: T4, Drosophila ecdysone receptor (Drosophila); experiment: gel mobility shift, hsp27-EcRE probe, S2 extract, with usp antibody supershift
[6] = target: T4, Drosophila ecdysone receptor (Drosophila); experiment: gel mobility shift, hsp27-EcRE probe, Drosophila embryo extract, with usp antibody supershift

Measured: binding

Drosophila ultraspiracle receptor
binds: all assays above
